# Assay results: the supplement of paper PMC12889115
# Some of the results follow. Values are raw readings; no control value is given beside them.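 Primary screen: polymyxin B was added at a level permeabilizing Salmonella outer membranes while sparing inner membranes. DMSO wells, both with and without polymyxin B, established maximum growth. Plate-to-plate variation meant each plate was ranked on its own, and the lowest-OD600 compounds were selected as hits.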
# System: Salmonella enterica serovar Typhimurium SL1344
# Assay: bacterial growth OD600 after 18 h with compound and polymyxin B; higher = more bacterial growth (less inhibition)
# Conditions: 50 µM, Mueller-Hinton broth
Compound,bacterial growth OD600 (polymyxin B 0.75 µg/mL),bacterial growth OD600 (polymyxin B 1 µg/mL)
O=C(Cn1ccnc1)N1CCCC(CCc2ccc(F)cc2F)C1 (stereo not given),0.788,–
O=C(NCC1CCCN(Cc2cc3c(cc2Cl)OCO3)C1)c1cccs1 (stereo not given),–,0.877
CCOC(=O)C1(Cc2cccc(Cl)c2)CCCN(C(=O)c2cc(C(C)C)nn2C)C1 (stereo not given),–,0.417
COc1ccc(C(CC(=O)N(C)Cc2nonc2C)c2ccccc2)cc1 (stereo not given),–,0.581
COc1ccc(-c2nc(CN(Cc3ccccc3)C[C@@H]3CCC(=O)N3)c(C)o2)cc1C,-0.002,–
CCN(CC)CCN(C)Cc1cnc(S(C)(=O)=O)n1CC1CCCO1 (stereo not given),–,1.02
CCN(CC)CCNC(=O)c1ccc(OC2CCN(S(C)(=O)=O)CC2)c(Cl)c1,–,1.35
COc1cc(CN2CCN(Cc3cnc(SC)nc3)CC2CCO)cc(OC)c1 (stereo not given),–,0.968
COc1cccc(CNC(C)c2cnn(-c3ccc(F)cc3F)c2C)c1 (stereo not given),0.804,–
CC(=O)c1ccc(OCC(=O)NCC2Cc3c(F)ccc(-c4ccncc4)c3O2)cc1 (stereo not given),1,–
Cc1nc(N(C)C2CCCCC2)ncc1C(C)NC(=O)C1CCC1 (stereo not given),0.615,–
CN1CCCC(O)(CN2CCC(C(=O)c3ccccc3)CC2)C1=O (stereo not given),–,0.953
O=C(/C=C/c1cccnc1)N1CC[C@@H](N2CCN(c3ccccc3F)CC2)[C@H](O)C1,–,1.02
Cc1nnc(-c2cccc(NC(=O)C3CCN(C(=O)c4ccnn4C)CC3)c2)s1,–,0.893
CC(=O)c1ccc(F)c(-c2cc(C)cc3c2OC(CNC(=O)c2ccccc2F)C3)c1 (stereo not given),0.006,–
CCNC(=O)c1cn(CC(C)C)cc(C(=O)NCc2cccc(C)c2)c1=O,0.755,–
CCOc1ccc(CN2CCN(Cc3cnn(CC)c3)CC2CCO)cc1 (stereo not given),–,0.959
CN(C)C(=O)CCC(=O)N1CCCC(CCc2cccc(F)c2)C1 (stereo not given),0.92,–
CCS(=O)(=O)c1ncc(CN(C)Cc2ccccc2OC)n1CCc1ccccc1,–,0.799
COc1cccc(CCc2nnc(CCC(=O)N(C)Cc3ccc(F)cc3)o2)c1,–,0.734

# Taken from the entries so far for reference:
Compound,bacterial growth OD600 (polymyxin B 0.75 µg/mL),bacterial growth OD600 (polymyxin B 1 µg/mL)
COc1cccc(CNC(C)c2cnn(-c3ccc(F)cc3F)c2C)c1 (stereo not given),0.804,–
CC(=O)c1ccc(OCC(=O)NCC2Cc3c(F)ccc(-c4ccncc4)c3O2)cc1 (stereo not given),1,–
